PubChem BioAssay AID504774 | Drosophila RNAi Screening Center – 2011

Screen: 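Knock-downs that shift viability of MMS-exposed cells relative to untreated ones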 (primary screen)
Cell system: Drosophila Kc167 cells
Knock-down reagent: long dsRNA against Drosophila genes, about 0.25 µg dsRNA per well
Timing: about 6 days: 3 days knock-down, then 3 days with or without MMS
Treatment: methyl methanesulphonate 0.004% (w/v) for 3 days after knock-down
Read-out: 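ATP-dependent luminescence as a measure of live cells in MMS-exposed wells, quantile normalised within each plate, with replicate values also given as a mean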
Scale: mean viability with MMS and viability with MMS: higher = more surviving cells after MMS
The screen tested about 23,000 reagents; this is a random part of those with a known target gene and a result. 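Values are quantile-normalised luminescence on an arbitrary scale; higher means more cells surviving MMS.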 Names joined by + are all predicted targets of the reagent. Further read-outs or replicates are left out here. Reagent sequences are not shown.

After knock-down of VhaAC45 [DRSC07058] the results were mean viability with MMS 3.38e6; viability with MMS, replicate 1 = 3.85e6. With knock-down of CG7222 [DRSC07019], the screen gave mean viability with MMS 3.70e6; viability with MMS, replicate 1 = 4.41e6. Knock-down of Nak [DRSC03379] resulted in: mean viability with MMS 3.55e6; viability with MMS, replicate 1 = 3.91e6. After knock-down of Dys [DRSC13360] the results were mean viability with MMS 3.42e6; viability with MMS, replicate 1 = 3.81e6. After knock-down of Dys [DRSC13364], the record shows mean viability with MMS 3.56e6; viability with MMS, replicate 1 = 4.06e6. Knock-down of Dys [DRSC15260] resulted in: mean viability with MMS 3.57e6; viability with MMS, replicate 1 = 3.84e6.

Silencing of Dys [DRSC16218] came out at: mean viability with MMS 3.47e6; viability with MMS, replicate 1 = 3.85e6. Dys [DRSC16219] gave mean viability with MMS 3.59e6; viability with MMS, replicate 1 = 3.87e6. Depletion of Dys [DRSC16220] came out at: mean viability with MMS 3.48e6; viability with MMS, replicate 1 = 3.96e6. Dys [DRSC16935] showed mean viability with MMS 3.49e6; viability with MMS, replicate 1 = 4.01e6. Chpf [DRSC19491] scored mean viability with MMS 3.80e6; viability with MMS, replicate 1 = 4.24e6. For Chpf [DRSC19893], the values are mean viability with MMS 3.58e6; viability with MMS, replicate 1 = 4.29e6.

Silencing of CG12096 [DRSC21692] resulted in: mean viability with MMS 3.50e6; viability with MMS, replicate 1 = 3.99e6. CG16723 [DRSC15138] showed mean viability with MMS 3.46e6; viability with MMS, replicate 1 = 3.98e6. Set2 [DRSC19765] showed mean viability with MMS 3.18e6; viability with MMS, replicate 1 = 3.71e6. After knock-down of Edem2 [DRSC02877], the record shows mean viability with MMS 3.68e6; viability with MMS, replicate 1 = 3.99e6. Silencing of lncRNA:CR42862 + CG33229 [DRSC08497] resulted in: mean viability with MMS 3.53e6; viability with MMS, replicate 1 = 3.99e6. Knock-down of RabX2 [DRSC18234] came out at: mean viability with MMS 3.68e6; viability with MMS, replicate 1 = 4.13e6.

With knock-down of CG11417 [DRSC18581], the record shows mean viability with MMS 3.33e6; viability with MMS, replicate 1 = 3.77e6. With knock-down of CG33331 + CG33332 [DRSC22928], the screen gave mean viability with MMS 3.46e6; viability with MMS, replicate 1 = 3.95e6.

Already shown: an excerpt of the list.
RabX2 [DRSC18234] → mean viability with MMS = 3.68e6; viability with MMS, replicate 1 = 4.13e6
CG11417 [DRSC18581] → mean viability with MMS = 3.33e6; viability with MMS, replicate 1 = 3.77e6
CG33331 + CG33332 [DRSC22928] → mean viability with MMS = 3.46e6; viability with MMS, replicate 1 = 3.95e6

Additional reagents:
Drat [DRSC06600] gave mean viability with MMS 3.50e6; viability with MMS, replicate 1 = 3.83e6. Against CG5339 [DRSC04496], the values are mean viability with MMS 3.55e6; viability with MMS, replicate 1 = 4.15e6. After knock-down of al [DRSC00799], the screen gave mean viability with MMS 3.46e6; viability with MMS, replicate 1 = 4.03e6. Depletion of Pdp1 [DRSC08896] gave: mean viability with MMS 2.76e6; viability with MMS, replicate 1 = 3.53e6. With knock-down of Pdp1 [DRSC08897], the screen gave mean viability with MMS 2.58e6; viability with MMS, replicate 1 = 3.51e6. Pdp1 [DRSC11251] gave mean viability with MMS 3.59e6; viability with MMS, replicate 1 = 4.06e6.

After knock-down of Pdp1 [DRSC22973] the results were mean viability with MMS 2.90e6; viability with MMS, replicate 1 = 3.11e6. Depletion of CG4793 [DRSC01966] resulted in: mean viability with MMS 3.54e6; viability with MMS, replicate 1 = 4.04e6. botv [DRSC05949] scored mean viability with MMS 3.44e6; viability with MMS, replicate 1 = 3.94e6. Against CG11714 [DRSC09857], the entry reads mean viability with MMS 3.58e6; viability with MMS, replicate 1 = 4.16e6. Against X11L [DRSC19958], the values are mean viability with MMS 3.84e6; viability with MMS, replicate 1 = 3.71e6. With knock-down of X11L [DRSC19959], the screen gave mean viability with MMS 3.60e6; viability with MMS, replicate 1 = 4.12e6.

Tsp42Er [DRSC06183] scored mean viability with MMS 3.72e6; viability with MMS, replicate 1 = 4.16e6. Silencing of dah [DRSC20320] resulted in: mean viability with MMS 3.67e6; viability with MMS, replicate 1 = 4.04e6. Against nerfin-1 [DRSC08729], the entry reads mean viability with MMS 3.47e6; viability with MMS, replicate 1 = 3.93e6.
